Laboratory results taken from US20240368556A1, “LIVER ORGANOID MODEL FOR HYPERBILIRUBINEMIA AND METHODS OF MAKING AND USING SAME” (CHILDREN’S HOSPITAL MEDICAL CENTER, priority 2021, published 2024).
For at least one compound, name, drawing or mass did not settle the structure.

How the values were obtained:
liver organoids [1] = assay: Lumen morphology of HLOs matured with low dose bilirubin (brightfield, ImageJ); assay type: cell-based, human
liver organoids [2] = assay: RT-qPCR of immature and maturation marker genes; assay type: cell-based, human; conditions: 1 mg/L bilirubin vs untreated organoids (FIG. 1D)
NRF2 = assay: RT-qPCR of NRF2 in liver organoids; assay type: cell-based, human
Protocol: On day 27, the mature organoids were treated with bilirubin (1-10 mg/L), doxycycline (100 ng/mL; added 3 days prior to activate gene expression) and/or additionally with drugs such as hydrocortisone, dexamethasone, ketoconazole and mifepristone (1-2 μM for each) for 5 days and then harvested for downstream assays. Bilirubin assay was performed using a colorimetric kit (ab235627 from Abcam). RNA was isolated using the RNeasy mini kit (Qiagen, Hilden, Germany). Reverse transcription was carried out using the High-Capacity cDNA Reverse Transcription Kit (Thermo Fisher Scientific Inc.) according to manufacturer's protocol. qPCR was carried out using TaqMan gene expression master mix (Applied Biosystems) on a QuantStudio 5 Real-Time PCR System (Thermo Fisher Scientific Inc.). All primers and probe information for each target gene was obtained from the Universal ProbeLibrary Assay Design Center (available on the World Wide Web at lifescience.roche.com/en_us/brands/universal-probe-library.html). Images were captured on the KEYENCE BZ-X710 Fluorescence Microscope (Keyence).

liver organoids [3] = assay: Bilirubin assay measuring unconjugated and conjugated bilirubin in liver organoids; assay type: cell-based, human; conditions: liver organoids in 10 mg/L bilirubin; drug 1 or 5 μM (FIG. 4B, 4D)
Protocol: Bilirubin levels were measured by collecting the supernatant from HLOs treated with bilirubin and serum from rats. The supernatant and serum were assayed with Bilirubin Assay Kit (Total and Direct, Colorimetric) (abcam) and Bilirubin Assay Kit (Sigma-Aldrich) according to manufacturer instructions.

mGULO organoids [4] = assay: UnaG assay of bilirubin conjugation in mGULO organoids; assay type: cell-based, human
mGULO organoids [5] = assay: Survival and morphology of mGULO organoids with doxycycline induction; assay type: cell-based, human; conditions: ascorbate-depleted media, with vs without doxycycline (FIG. 2F)
liver organoids [6] = assay: RNA sequencing of HLOs; assay type: cell-based, human; conditions: mGULO liver organoids treated with Dox vs control HLOs (FIG. 2J, 2K)
Protocol: RNA was isolated using the RNeasy mini kit (Qiagen). […] All the samples were amplified with TaqMan Gene Expression Assays and normalized with 18S rRNA Endogenous Control. For RNA sequencing, the extracted RNA quality was evaluated with an Agilent 2100 Bioanalyzer (Agilent). A sequence library was prepared using a TruSeq Stranded mRNA kit (Illumina) and sequenced using NovaSeq 6000 (Illumina). Reads were aligned to human genome assembly hg38 and quantified using the quasi-mapper Salmon (v1.8.0). Gene-expression analysis was performed using the R Bioconductor package DESeq2 (v1.36.0). The read count matrix was normalized by size factors, and a variance stabilizing transformation (VST) was applied to the normalized expression data. The data was visualized using clusterProfiler (v.4.4.1) and pheatmap (v1.0.12) packages. […] RNA sequencing parameters were 150 bp paired-end sequencing at a depth of 20M reads per samples. Fastq read files for each sample were obtained and then aligned using Salmon, a quasi-mapping tool that aligns and quantifies transcripts using RNA-seq data. Raw transcript counts and normalized transcripts per million (TPM) values were obtained and analyzed for differential expression with DESeq2. […]

mGULO organoids [7] = assay: Cellular Antioxidant Assay in mGULO HLOs; assay type: cell-based, human; conditions: Dox 10 or 100 ng/mL (FIG. 2G)
mGULO = assay: Mouse GULO ELISA in mGULO HLOs; assay type: cell-based; conditions: Dox 10 or 100 ng/mL (FIG. 2G)
IL1B, IL6, TNFa = assay: RT-qPCR of inflammatory cytokines (IL1B, IL6, TNFa) in mGULO organoids; assay type: cell-based, human; conditions: ascorbate-depleted media, 100 ng/mL Dox (FIG. 2H)

## C=CC1=C(C)/C(=C/c2[nH]c(Cc3[nH]c(/C=C4\NC(=O)C(C)=C4C=C)c(C)c3CCC(=O)O)c(CCC(=O)O)c2C)NC1=O [bilirubin]
Liver organoids [1]; 1 mg/L bilirubin (FIG. 1B)
  luminal projections: luminal projections resembling bile canaliculi
Liver organoids [1]; 1 mg/L bilirubin vs untreated control organoids (FIG. 1C)
  lumen size and circularity: smaller sizes and reduced circularity
Liver organoids [2]
  expression of immature or fetal liver markers (AFP, NANOG, CDX2): reduced expression
  expression of mature liver markers (ALB, SLC4A2, HO-1): increased expression
NRF2; bilirubin at varying concentrations vs untreated organoids (FIG. 3C)
  NRF2 expression: increased corresponding to bilirubin dose

## C[C@@H]1C[C@H]2[C@@H]3CCC4=CC(=O)C=C[C@]4(C)[C@@]3(F)[C@@H](O)C[C@]2(C)[C@@]1(O)C(=O)CO [dexamethasone]
Liver organoids [3]
  bilirubin conjugation (unconjugated vs conjugated bilirubin): decreased bilirubin conjugation ability

## C[C@H]1c2cccc(O)c2C(=O)C2=C(O)[C@]3(O)C(=O)C(C(N)=O)=C(O)[C@@H](N(C)C)[C@@H]3[C@@H](O)[C@@H]21 [doxycycline]
mGULO organoids [4]; Dox-induced vs uninduced mGULO organoids (FIG. 2R)
  UnaG fluorescence (unconjugated bilirubin): decrease in UnaG fluorescence
mGULO organoids [4]; mGULO organoids treated with bilirubin, by Dox concentration (FIG. 2S)
  organoid viability: increased
mGULO organoids [4]; mGULO organoids, by Dox concentration (FIG. 2S)
  percentage of organoids that conjugate bilirubin: increased
mGULO organoids [5]
  survivability of mGULO organoids: survivability is rescued
Liver organoids [1]; mGULO organoids, Dox plus 1 mg/L bilirubin (FIG. 2L)
  lumen shape: increasingly complex and irregular lumen shape
Liver organoids [6]
  expression of liver maturation / periportal markers (RNA-seq): increased expression of markers associated liver maturation and/or with the periportal zone of the liver
mGULO organoids [7]
  cellular antioxidant levels: dose dependent correlation
mGULO
  GULO expression (ELISA): dose dependent correlation
NRF2; mGULO organoids, ascorbate-depleted media, 100 ng/mL Dox (FIG. 2H)
  NRF2 expression: elevated
IL1B, IL6, TNFa
  expression of inflammatory cytokines IL1B, IL6, TNFa: rescued to resemble control
